Measurements as given in publication PMC7343880.
These are yes or no findings as the source states them, for the method shown. For some of these results: In cells and extracts the contact can be indirect. Some results given as binding are weak or reduced against the parent protein; the word gives no strength. For some of these results: Tags and fused reporters may be left off the sequences shown.

The chains behind the UniProt entries cited, without tags or fusion partners. Residues count along the entry.
UniProt Q9NZQ7, residues 19-290: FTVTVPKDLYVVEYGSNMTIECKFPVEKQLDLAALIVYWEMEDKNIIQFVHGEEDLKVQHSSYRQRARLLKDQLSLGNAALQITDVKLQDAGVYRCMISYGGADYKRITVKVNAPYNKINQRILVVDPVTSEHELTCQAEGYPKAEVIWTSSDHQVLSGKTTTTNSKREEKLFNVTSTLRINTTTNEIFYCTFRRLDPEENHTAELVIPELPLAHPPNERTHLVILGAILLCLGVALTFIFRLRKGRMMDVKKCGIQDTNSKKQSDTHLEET

T1: PDS5B (purified from insect cells) (UniProt Q9NTI5)
T1 sequence: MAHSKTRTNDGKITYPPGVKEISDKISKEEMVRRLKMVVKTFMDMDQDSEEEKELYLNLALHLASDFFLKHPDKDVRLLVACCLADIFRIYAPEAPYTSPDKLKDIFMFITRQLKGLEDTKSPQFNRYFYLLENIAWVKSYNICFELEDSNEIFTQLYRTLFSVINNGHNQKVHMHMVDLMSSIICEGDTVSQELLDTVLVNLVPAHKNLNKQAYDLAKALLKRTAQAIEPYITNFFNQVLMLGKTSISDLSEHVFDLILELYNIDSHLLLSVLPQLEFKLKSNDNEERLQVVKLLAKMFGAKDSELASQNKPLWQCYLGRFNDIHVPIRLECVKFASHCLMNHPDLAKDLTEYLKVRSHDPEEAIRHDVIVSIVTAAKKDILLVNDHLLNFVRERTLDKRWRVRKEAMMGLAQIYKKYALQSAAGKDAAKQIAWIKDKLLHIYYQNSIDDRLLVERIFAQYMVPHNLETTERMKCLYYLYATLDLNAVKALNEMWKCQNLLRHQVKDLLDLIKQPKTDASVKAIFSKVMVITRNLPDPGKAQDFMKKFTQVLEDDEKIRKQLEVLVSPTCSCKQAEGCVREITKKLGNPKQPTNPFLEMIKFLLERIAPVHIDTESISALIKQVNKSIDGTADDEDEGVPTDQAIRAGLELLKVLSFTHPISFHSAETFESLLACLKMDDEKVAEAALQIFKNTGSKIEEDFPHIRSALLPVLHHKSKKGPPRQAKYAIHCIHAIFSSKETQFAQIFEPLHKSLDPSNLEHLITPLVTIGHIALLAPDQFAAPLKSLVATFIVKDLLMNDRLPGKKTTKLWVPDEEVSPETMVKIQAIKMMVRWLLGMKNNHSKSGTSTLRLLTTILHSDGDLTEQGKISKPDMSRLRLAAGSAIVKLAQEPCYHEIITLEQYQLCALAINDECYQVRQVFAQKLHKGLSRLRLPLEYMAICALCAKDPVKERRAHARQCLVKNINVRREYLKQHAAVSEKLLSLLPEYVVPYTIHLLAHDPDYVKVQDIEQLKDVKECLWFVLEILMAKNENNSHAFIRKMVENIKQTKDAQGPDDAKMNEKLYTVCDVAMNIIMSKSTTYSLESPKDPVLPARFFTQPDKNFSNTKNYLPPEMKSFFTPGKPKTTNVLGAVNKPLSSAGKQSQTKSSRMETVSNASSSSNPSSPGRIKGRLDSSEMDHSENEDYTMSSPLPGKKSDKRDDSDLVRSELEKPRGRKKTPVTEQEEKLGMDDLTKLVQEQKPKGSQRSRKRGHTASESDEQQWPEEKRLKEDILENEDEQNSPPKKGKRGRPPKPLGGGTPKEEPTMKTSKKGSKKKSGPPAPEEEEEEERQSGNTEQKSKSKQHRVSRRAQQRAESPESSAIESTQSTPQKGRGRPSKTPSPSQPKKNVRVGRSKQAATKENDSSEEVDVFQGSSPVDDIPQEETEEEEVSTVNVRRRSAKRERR

T2: PDS5B (human (endogenous in MDA-MB-231)) (UniProt Q9NTI5)
T2 sequence: T1 sequence

B1: PDS5B (protein, UniProt Q9NTI5 1-1447)
chain: T1 sequence
B2: Wing Apart-Like (WAPL) (protein, UniProt Q7Z5K2 1-1190)
chain: MTSRFGKTYSRKGGNGSSKFDEVFSNKRTTLSTKWGETTFMAKLGQKRPNFKPDIQEIPKKPKVEEESTGDPFGFDSDDESLPVSSKNLAQVKCSSYSESSEAAQLEEVTSVLEANSKISHVVVEDTVVSDKCFPLEDTLLGKEKSTNRIVEDDASISSCNKLITSDKVENFHEEHEKNSHHIHKNADDSTKKPNAETTVASEIKETNDTWNSQFGKRPESPSEISPIKGSVRTGLFEWDNDFEDIRSEDCILSLDSDPLLEMKDDDFKNRLENLNEAIEEDIVQSVLRPTNCRTYCRANKTKSSQGASNFDKLMDGTSQALAKANSESSKDGLNQAKKGGVSCGTSFRGTVGRTRDYTVLHPSCLSVCNVTIQDTMERSMDEFTASTPADLGEAGRLRKKADIATSKTTTRFRPSNTKSKKDVKLEFFGFEDHETGGDEGGSGSSNYKIKYFGFDDLSESEDDEDDDCQVERKTSKKRTKTAPSPSLQPPPESNDNSQDSQSGTNNAENLDFTEDLPGVPESVKKPINKQGDKSKENTRKIFSGPKRSPTKAVYNARHWNHPDSEELPGPPVVKPQSVTVRLSSKEPNQKDDGVFKAPAPPSKVIKTVTIPTQPYQDIVTALKCRREDKELYTVVQHVKHFNDVVEFGENQEFTDDIEYLLSGLKSTQPLNTRCLSVISLATKCAMPSFRMHLRAHGMVAMVFKTLDDSQHHQNLSLCTAALMYILSRDRLNMDLDRASLDLMIRLLELEQDASSAKLLNEKDMNKIKEKIRRLCETVHNKHLDLENITTGHLAMETLLSLTSKRAGDWFKEELRLLGGLDHIVDKVKECVDHLSRDEDEEKLVASLWGAERCLRVLESVTVHNPENQSYLIAYKDSQLIVSSAKALQHCEELIQQYNRAEDSICLADSKPLPHQNVTNHVGKAVEDCMRAIIGVLLNLTNDNEWGSTKTGEQDGLIGTALNCVLQVPKYLPQEQRFDIRVLGLGLLINLVEYSARNRHCLVNMETSCSFDSSICSGEGDDSLRIGGQVHAVQALVQLFLERERAAQLAESKTDELIKDAPTTQHDKSGEWQETSGEIQWVSTEKTDGTEEKHKKEEEDEELDLNKALQHAGKHMEDCIVASYTALLLGCLCQESPINVTTVREYLPEGDFSIMTEMLKKFLSFMNLTCAVGTTGQKSISRVIEYLEHC

Key:
[1] = target: T1, PDS5B (purified from insect cells); experiment: in vitro competition binding assay; PDS5B purified from insect cells, purified WAPL (1–30)-GST and PD-L1 (WT or AKE) purified from nuclear fraction of MDA-MB-231 cells (Fig. 3f, left); further details not given; both purified
[2] = target: PD-L1 wild-type (WT), transfected, HA-tagged (UniProt Q9NZQ7); experiment: co-IP; PD-L1 WT, AIA or AKE plasmids transfected into cells; nuclear fractions incubated with HA-conjugated sepharose beads; blots (Fig. 3d)
[3] = target: T2, PDS5B (human (endogenous in MDA-MB-231)); experiment: co-IP; PD-L1 WT, AIA or AKE plasmids transfected into cells; nuclear fractions incubated with protein A beads conjugated with anti-PDS5B antibody; blots (Fig. 3e)

Row | Molecule | binding [1] | further results
1 | PD-L1 wildtype purified from nuclear fraction of MDA-MB-231 cells (from UniProt Q9NZQ7 19-290) | binds | –
2 | MTSRFGKTYSRKGGNGSSKFDEVFSNKRTT (domain or fragment, UniProt Q7Z5K2 1-30) [WAPL (1–30)-GST] | binds | –
3 | B1 | – | binding [2]: binds
4 | B2 | – | binding [3]: binds
